Test results published in US20230192839A1, “ANTIBODIES HAVING CONDITIONAL AFFINITY AND METHODS OF USE THEREOF” (PFIZER INC., priority 2017, published 2023).
Positions count from the first letter of the chain named. Results are given in words; binding and its absence hold for the method and conditions named. Some binding calls cover weakened binding; strength is not graded here. Sequences can lack the tags named with a protein. Blank lines part the entries; values can stand above or below the binder they belong to.

Chains of the proteins cited; added tags and fusions are not shown. Residues count along the entry.
UniProt P20138, residues 18-259: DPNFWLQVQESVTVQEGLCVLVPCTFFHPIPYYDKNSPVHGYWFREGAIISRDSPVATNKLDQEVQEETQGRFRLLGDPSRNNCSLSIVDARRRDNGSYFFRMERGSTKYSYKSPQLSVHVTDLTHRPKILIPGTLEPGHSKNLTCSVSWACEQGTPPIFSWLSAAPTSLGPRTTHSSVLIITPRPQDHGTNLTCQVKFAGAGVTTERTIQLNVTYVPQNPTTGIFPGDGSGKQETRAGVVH

Assays:
[1] = target: human CD33 antigen (human) (UniProt P20138); test: SPR (Biacore T200), 37 C, scFv-Fc, 0 and 10 uM MTX
[2] = target: human epidermal growth factor receptor antigen (human) (UniProt P00533); test: SPR (Biacore T200), 37 C, scFv-Fc, 0 and 10 uM MTX

binding [1]: binds
B1: P02_C02 scFv-Fc fusion (scFv, V domains shown)
VH: QVQLVESGGGLVQAGGSLRLSCAASRRSSRSWAMHWVRQAPGKGLEWVAVISYDGRLKYYADSVKGRFTISRDNAEYLVYLQMNSLRAEDTAVYYCAAEGGMGLDPWGQGTLVTVSS
VL: DIQMTQSPSSLSASVGDRVTITCRASQTISSYLNWYQQKPGKAPKLLIYAASNLHSGVPSRFSGSGSGTDFTLTISSLQPEDFATYYCQQSYSSGTFGQGTKVEIK

binding [1]: binds
B2: P01_B02 scFv-Fc fusion (scFv, V domains shown)
VH: QVQLVESGGGLVQAGGSLRLSCAASRRSSRSWAMHWVRQAPGKGLEWVAVISYDGRLKYYADSVKGRFTISRDNAEYLVYLQMNSLRAEDTAVYYCAAADWYSGGGDALDIWGQGTLVTVSS
VL: B1 VL with S30Y, S31N, A50G, H55Q, S91T, G95P

binding [2]: binds
B3: P01_B06 scFv-Fc fusion (scFv, V domains shown)
VH: QVQLVESGGGLVQAGGSLRLSCAASRRSSRSWAMHWVRQAPGKGLEWVAVISYDGRLKYYADSVKGRFTISRDNAEYLVYLQMNSLRAEDTAVYYCAADTSMFASYDPMDVWGQGTLVTVSS
VL: QSVLTQPPSASGTPGQRVTISCSGSSSNIGRNYVNWYQQLPGTAPKLLIYRDDHRPSGVPDRFSGSKSGTSASLAISGLRSEDEADYYCASWDDTLSGWVFGTGTKLTVL
